From patent US12005078B2, “Genetically engineered drug resistant T cells and methods of using the same” (The UAB Research Foundation, priority 2015, dated 2024)
At least one compound was matched to its structure with a doubt left.

Tests used:
X12T glioma = experiment: Survival of TMZ-resistant glioma-bearing mice; type: in vivo; details: single administration of cells per week, DRI p=0.0147
From the text: (§1) The expression of NKG2DL on tumor cells increases the overall potency of γδ T cell therapy. FIGS. 5A and 5B show the survival of X12P and X12T (TMZ resistant) glioma-bearing mice, respectively, in response to various treatments. […] The DRI treatment regimen increased median survival from 57 to 75 days over the TMZ treatment regimen. […] The DRI treatment regimen increased median survival from 22 to 27 days over the TMZ treatment regimen. The effect of the DRI treatment regimen could be increased by intensification of the administration of the γδ T cells and NK cells from a single administration per week (as shown in FIG. 2) to two administrations per week (data not shown).

X12P glioma = experiment: Survival of glioma-bearing mice; type: in vivo; details: p<0.001
From the text: as §1

Cn1nnc2c(C(N)=O)ncn2c1=O [TMZ, temozolomide]
survival compared to untreated mice (X12T glioma): did not improve survival | survival compared to CT treatment regimen and untreated mice (X12P glioma): increased survival
